From patent US9194863B2, “Treatment of pain” (priority 2011, dated 2015)

What was measured:
DRG neurons = experiment: Fura-2 intracellular Ca2+ imaging in isolated DRG neurons; assay type: cell-based, mouse
Experimental: Human embryonic kidney cells, HEK293T, were grown in Dulbecco's modified Eagle's medium (DMEM) containing 10% (v/v) human serum, 2 mM L-glutamine, 2 units/ml penicillin, and 2 mg/ml streptomycin at 37° C. in a humidity-controlled incubator with 10% CO2. HEK293T cells were transiently transfected with murine TRPM3α2 (accession number AJ 544535) in the bicistronic pCAGGS/IRES-GFP vector, using Mirus TransIT-293 (Mirus corporation; Madison USA). Transfected cells were visualized by green fluorescence protein (GFP) expression whereas GFP negative cells from the same batch were used as controls. TG and DRG neurons from adult (postnatal weeks 8-12) male mice were isolated as described previously (Karashima et al., 2007). HEK293T cells stably transfected with TRPM3α2 were developed using the Flp-In System (Invitrogen).
Fura-2-based ratiometric intracellular Ca^2+ measurements were performed as described previously (Vriens et al., 2007). The following procedure was used to distinguish stimulus-induced responses from background variations in fluorescence. First, we calculated the time derivative of the fluorescence ratio (dRatio/dt), and the standard deviation (SD) of dRatio/dt in the absence of any stimulus. A positive response was noted when a stimulus caused an increase of dRatio/dt exceeding 5×SD. […] For every condition, a minimum of 100 cells derived from at least three separated isolations and in at least twelve independent measurements were analyzed.

mice = experiment: Body core temperature by telemetry after subcutaneous injection; assay type: in vivo, mouse; conditions: PS 28 mg/kg, capsaicin 0.4 mg/kg, Trpm3+/+ and Trpm3−/− mice

| SMILES | average diameter of responsive DRG neurons (DRG neurons) | diameter of responsive DRG neurons (DRG neurons) | effect on core body temperature (mice) |
| --- | --- | --- | --- |
| CC(=O)C1CCC2C3CC=C4CC(OS(=O)(=O)O)CCC4(C)C3CCC12C (centres unmarked) [PS, pregnenolone sulphate] | 12.4±0.3 μm | < 25 μm | without effect |
| COc1cc(CNC(=O)CCCC/C=C/C(C)C)ccc1O [capsaicin] | 12.0±0.3 μm | – | clear hypothermia |
